Test results: patent publication US20180327746, “Alpha-AMYLASE-BINDING NUCLEIC ACID MOLECULE AND USE THEREOF” (NEC Solution Innovators, Ltd., published 2018)
Construct, isoform or probe ends are uncertain for at least one entry. At least one result comes from cells or an extract, where the contact may be indirect. Negatives hold for the conditions tested. Tags and fusion partners may be left off the protein sequences shown.

Biological target: T1, alpha-amylase (in human saliva) (Homo sapiens) (UniProt P0DUB6)
T1 sequence (looked up, limits assumed): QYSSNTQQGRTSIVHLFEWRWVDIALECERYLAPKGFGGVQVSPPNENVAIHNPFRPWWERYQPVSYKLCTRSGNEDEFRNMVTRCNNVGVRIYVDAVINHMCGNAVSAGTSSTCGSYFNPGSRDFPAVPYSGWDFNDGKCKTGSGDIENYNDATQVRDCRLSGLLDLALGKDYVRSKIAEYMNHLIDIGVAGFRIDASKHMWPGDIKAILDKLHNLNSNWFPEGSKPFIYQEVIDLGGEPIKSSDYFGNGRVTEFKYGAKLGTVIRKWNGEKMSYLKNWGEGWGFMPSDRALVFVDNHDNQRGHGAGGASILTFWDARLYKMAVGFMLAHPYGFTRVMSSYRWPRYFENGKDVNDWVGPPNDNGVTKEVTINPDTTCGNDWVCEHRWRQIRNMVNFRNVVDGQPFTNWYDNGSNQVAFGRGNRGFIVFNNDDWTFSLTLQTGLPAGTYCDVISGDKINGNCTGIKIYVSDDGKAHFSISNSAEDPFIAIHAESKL
Test: pull-down
Conditions: 90% saliva; primer-bound bead control; protein in an extract; label: 5' biotin; single-stranded DNA; variant of biotin-AML1243KR8m1 on SA beads

GGATACCTTAACGCCGCCTATTG [biotinylated primer (5' region)]
binding result: no binding
